PubChem BioAssay AID1259308 | NCATS – 2017
This is one part, drawn at random, of about 59,000 reagents. About 1,510 of them (2.6%) count as active. 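Calls use total luciferase alone and ignore viability, so some active siRNAs may act by altering cell number.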 Reagents against one gene are numbered here. Not all columns of the deposit are shown.

Aim: 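Candidate targets for better recombinant protein yield in mammalian cells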 (primary screen)
System: human HEK293 embryonic kidney cells stably expressing firefly luciferase (HEK-CMV-Luc2-Hygro)
Knock-down reagent: single siRNA against human genes, 0.8 pmol siRNA per well
Duration: 72 h
Read-out: 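Luciferase light (ONE-Glo) measured on one replicate plate set and viability (CellTiter-Glo) on the other, scaled to a negative control siRNA, with robust z-scores and luciferase per cell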
Reading the numbers: total luciferase, z-score and total luciferase, % of control: higher = more reporter protein produced
Hit rule: 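An siRNA counts as active if its total luciferase robust z-score exceeds 3; genes with two or more such siRNAs out of three were retested with fresh siRNAs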
Meaning of the calls: active = raised luciferase; inactive = no rise

no.	gene knocked down	reagent	total luciferase, z-score	total luciferase, % of control	call
1	DNAJB12 (DnaJ heat shock protein family (Hsp40) member B12)	1	0.723	96.3	inactive
2	DNAJB12 (DnaJ heat shock protein family (Hsp40) member B12)	2	6.66	214	active
3	DNAJB12 (DnaJ heat shock protein family (Hsp40) member B12)	3	1.8	118	inactive
4	SAMD10 (sterile alpha motif domain containing 10)	1	-0.152	78.9	inactive
5	SAMD10 (sterile alpha motif domain containing 10)	2	3.92	160	active
6	SAMD10 (sterile alpha motif domain containing 10)	3	0.776	97.3	inactive
7	COG4 (component of oligomeric golgi complex 4)	1	1.1	104	inactive
8	COG4 (component of oligomeric golgi complex 4)	2	-0.609	69.8	inactive
9	COG4 (component of oligomeric golgi complex 4)	3	-1.9	44	inactive
10	LINC00683 (long intergenic non-protein coding RNA 683)	1	0.878	99.3	inactive
11	LINC00683 (long intergenic non-protein coding RNA 683)	2	0.286	87.6	inactive
12	LINC00683 (long intergenic non-protein coding RNA 683)	3	0.663	95.1	inactive
13	ZNF385B (zinc finger protein 385B)	1	1.91	120	inactive
14	ZNF385B (zinc finger protein 385B)	2	0.408	90	inactive
15	ZNF385B (zinc finger protein 385B)	3	0.607	94	inactive
16	ARRDC4 (arrestin domain containing 4)	1	-0.308	75.8	inactive
17	ARRDC4 (arrestin domain containing 4)	2	1.47	111	inactive
18	ARRDC4 (arrestin domain containing 4)	3	-2.25	37.1	inactive
19	STARD7-AS1 (STARD7 antisense RNA 1)	1	-0.398	74	inactive
20	STARD7-AS1 (STARD7 antisense RNA 1)	2	0.157	85	inactive
21	STARD7-AS1 (STARD7 antisense RNA 1)	3	0.822	98.2	inactive
22	PTGS2 (prostaglandin-endoperoxide synthase 2)	1	0.155	85	inactive
23	PTGS2 (prostaglandin-endoperoxide synthase 2)	2	1.65	115	inactive
24	PTGS2 (prostaglandin-endoperoxide synthase 2)	3	1.07	103	inactive
25	MALT1 (MALT1 paracaspase)	1	-0.877	64.5	inactive
26	MALT1 (MALT1 paracaspase)	2	0.966	101	inactive
27	MALT1 (MALT1 paracaspase)	3	-0.669	68.6	inactive
28	KLF9 (KLF transcription factor 9)	1	-1.6	50	inactive
29	KLF9 (KLF transcription factor 9)	2	0.612	94.1	inactive
30	KLF9 (KLF transcription factor 9)	3	0.777	97.3	inactive
31	CYYR1 (cysteine and tyrosine rich 1)	1	1.38	109	inactive
32	CYYR1 (cysteine and tyrosine rich 1)	2	0.886	99.5	inactive
33	CYYR1 (cysteine and tyrosine rich 1)	3	0.337	88.6	inactive
34	TAS2R5 (taste 2 receptor member 5)	1	2.1	124	inactive
35	TAS2R5 (taste 2 receptor member 5)	2	-0.776	66.5	inactive
36	TAS2R5 (taste 2 receptor member 5)	3	0.855	98.9	inactive
37	ARMC8 (armadillo repeat containing 8)	1	1.48	111	inactive
38	ARMC8 (armadillo repeat containing 8)	2	-2.55	31.2	inactive
39	ARMC8 (armadillo repeat containing 8)	3	1.33	108	inactive
40	RBKS (ribokinase)	1	-0.297	76	inactive
41	RBKS (ribokinase)	2	-0.286	76.2	inactive
42	RBKS (ribokinase)	3	0.0268	82.4	inactive
43	ZNF500 (zinc finger protein 500)	1	0.893	99.6	inactive
44	ZNF500 (zinc finger protein 500)	2	1.49	112	inactive
45	ZNF500 (zinc finger protein 500)	3	0.35	88.8	inactive
46	TESC (tescalcin)	1	-1.68	48.4	inactive
47	TESC (tescalcin)	2	0.0584	83	inactive
48	TESC (tescalcin)	3	-0.111	79.7	inactive
49	CAVIN3 (caveolae associated protein 3)	1	0.208	86	inactive
50	CAVIN3 (caveolae associated protein 3)	2	1.36	109	inactive
51	CAVIN3 (caveolae associated protein 3)	3	0.254	86.9	inactive
52	ELL3 (elongation factor for RNA polymerase II 3)	1	0.108	84	inactive
53	ELL3 (elongation factor for RNA polymerase II 3)	2	-1.34	55.3	inactive
54	ELL3 (elongation factor for RNA polymerase II 3)	3	4.23	166	active
55	CLEC1A (C-type lectin domain family 1 member A)	1	3.75	157	active
56	CLEC1A (C-type lectin domain family 1 member A)	2	1.1	104	inactive
57	CLEC1A (C-type lectin domain family 1 member A)	3	0.558	93	inactive
58	RARS1 (arginyl-tRNA synthetase 1)	1	0.0701	83.3	inactive
59	RARS1 (arginyl-tRNA synthetase 1)	2	-0.4	73.9	inactive
60	RARS1 (arginyl-tRNA synthetase 1)	3	-0.0705	80.5	inactive
61	SRRM2 (serine/arginine repetitive matrix 2)	1	1.37	109	inactive
62	SRRM2 (serine/arginine repetitive matrix 2)	2	2.99	141	inactive
63	SRRM2 (serine/arginine repetitive matrix 2)	3	-0.307	75.8	inactive
64	RNASE3 (ribonuclease A family member 3)	1	1.42	110	inactive
65	RNASE3 (ribonuclease A family member 3)	2	-0.76	66.8	inactive
66	RNASE3 (ribonuclease A family member 3)	3	0.108	84	inactive
67	MUCL3 (mucin like 3)	1	2.07	123	inactive
68	MUCL3 (mucin like 3)	2	0.383	89.5	inactive
69	MUCL3 (mucin like 3)	3	-0.993	62.1	inactive
70	C6 (complement C6)	1	-1.44	53.3	inactive
71	C6 (complement C6)	2	-0.144	79	inactive
72	C6 (complement C6)	3	-2.2	38.1	inactive
73	FGFR1 (fibroblast growth factor receptor 1)	1	0.155	85	inactive
74	FGFR1 (fibroblast growth factor receptor 1)	2	-0.362	74.7	inactive
75	FGFR1 (fibroblast growth factor receptor 1)	3	-0.882	64.3	inactive

12 entries from above, sorted by “total luciferase, z-score”, ascending:
gene knocked down	reagent	total luciferase, z-score	total luciferase, % of control	call
KLF9 (KLF transcription factor 9)	1	-1.6	50	inactive
MALT1 (MALT1 paracaspase)	1	-0.877	64.5	inactive
MALT1 (MALT1 paracaspase)	3	-0.669	68.6	inactive
PTGS2 (prostaglandin-endoperoxide synthase 2)	1	0.155	85	inactive
STARD7-AS1 (STARD7 antisense RNA 1)	2	0.157	85	inactive
KLF9 (KLF transcription factor 9)	2	0.612	94.1	inactive
KLF9 (KLF transcription factor 9)	3	0.777	97.3	inactive
STARD7-AS1 (STARD7 antisense RNA 1)	3	0.822	98.2	inactive
MALT1 (MALT1 paracaspase)	2	0.966	101	inactive
PTGS2 (prostaglandin-endoperoxide synthase 2)	3	1.07	103	inactive
CYYR1 (cysteine and tyrosine rich 1)	1	1.38	109	inactive
PTGS2 (prostaglandin-endoperoxide synthase 2)	2	1.65	115	inactive
